{"source": "patent US20180311369A1", "about": "(WRIGHT STATE UNIVERSITY, published 2018)", "biological_target": "MAGI-1 PDZ2 domain", "test": "ligand binding assay with purified PDZ domain", "note": "Results are given in words; binding and its absence hold for the method and conditions named.", "data": [{"binder": "GRKKRRQRRRPPQYKTDGITVV (also called TAT-PDZ3 peptide)", "note": "[TAT-CAR^Ex8]", "values": [{"measurement": "binding", "result": "no binding"}]}]}
